The values below come from publication PMC10929199.

The chains behind the UniProt entries cited, without tags or fusion partners.
UniProt O35253: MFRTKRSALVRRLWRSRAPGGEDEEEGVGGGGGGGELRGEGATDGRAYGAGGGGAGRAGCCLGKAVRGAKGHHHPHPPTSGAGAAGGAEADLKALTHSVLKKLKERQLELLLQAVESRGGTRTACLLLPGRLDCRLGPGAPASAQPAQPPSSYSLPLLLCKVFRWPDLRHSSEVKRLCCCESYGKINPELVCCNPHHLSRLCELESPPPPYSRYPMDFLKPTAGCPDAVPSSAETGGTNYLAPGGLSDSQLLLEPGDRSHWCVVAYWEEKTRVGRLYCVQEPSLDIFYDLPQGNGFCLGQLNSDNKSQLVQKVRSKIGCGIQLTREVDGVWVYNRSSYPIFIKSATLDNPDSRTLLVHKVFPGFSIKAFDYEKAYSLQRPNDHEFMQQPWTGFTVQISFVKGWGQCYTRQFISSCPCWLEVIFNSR

No constants are given. Whether binding was seen depends on the method and setting. Binding seen in cells or lysates may run through a third protein. Some results given as binding are weak or reduced against the parent protein; the word gives no strength.

The target in test [1] is T1, Carbonic anhydrase 3 (mouse (endogenous in adult mouse cardiac fibroblasts and mouse heart tissue)) (UniProt P16015).
T1 sequence: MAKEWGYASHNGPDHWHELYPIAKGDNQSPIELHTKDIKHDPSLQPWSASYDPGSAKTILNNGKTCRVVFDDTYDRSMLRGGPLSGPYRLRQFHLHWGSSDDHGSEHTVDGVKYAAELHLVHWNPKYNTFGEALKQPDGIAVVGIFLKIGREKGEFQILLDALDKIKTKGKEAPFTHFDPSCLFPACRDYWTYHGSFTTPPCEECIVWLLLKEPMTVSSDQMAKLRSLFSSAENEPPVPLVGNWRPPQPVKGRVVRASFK
The test can be described thus: co-IP; lysates of cultured adult mouse cardiac fibroblasts (with or without TGF-β1; WT and Car3-deficient), 800 μg, IP with anti-CAR3 antibody overnight at 4°C and protein G agarose, blot with anti-Smad7; IgG as negative control; lysis buffer 20 mM Tris pH 7.5, 150 mM NaCl, 1 mM EDTA, 1% Nonidet P-40, 5% glycerol.

Test [2] deals with T1, Carbonic anhydrase 3 (mouse (endogenous in adult mouse cardiac fibroblasts and mouse heart tissue)). Put plainly: co-IP; lysates of mouse heart tissue from the infarct (sham or MI; WT and Car3-deficient), 800 μg, IP with anti-CAR3 antibody overnight at 4°C and protein G agarose, blot with anti-Smad7; IgG as negative control; lysis buffer 20 mM Tris pH 7.5, 150 mM NaCl, 1 mM EDTA, 1% Nonidet P-40, 5% glycerol.

Regarding Smad7 (from UniProt O35253 1-426), the binding entry in test [1] and in test [2] was “binds” throughout.
